Counter-ions that a name gives are not always drawn. ± gives the standard deviation of the averaged measurements. The list shows a part of the results. Values are raw readings; no control value is given beside them.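 HeLa cells imaged for ribosome-assembly readouts (ENP1 staining with or without export block, or inducible tagged ribosomal protein reporters); machine learning classified each cell's signal location against solvent (DMSO) controls. Hits exceeded the DMSO false-positive mean by five standard deviations, then were visually confirmed; three biological replicates.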

The record followed here is the supplement of paper PMC12542422.

The test system of one experiment is HeLa RPS2-YFP reporter. As to the kind of experiment: fraction of reporter-positive cells with nuclear (nucleolar or nucleolar/nucleoplasmic) RPS2-YFP (MainHitrate); higher = more cells with nucleolar/nuclear readout signal (for ENP1 -LMB: less RNAPI inhibition; for +LMB ENP1 and RP reporters: stronger nuclear/nucleolar retention, i.e. ribosome biogenesis defect). The note with it: concentration: 1 µM; treatment time: 6 h.
With `C=CCc1cc(OC)c(O)c(C(=O)NCCO)c1` [Alibendol], the “fraction of reporter-positive cells with nuclear” value (“fraction” for short) worked out at 0.107 ± 0.063.

Regarding `CCCN1CCCC[C@H]1C(=O)Nc1c(C)cccc1C` [Ropivacaine HCl], the “fraction” value was determined as 0.12 ± 0.094. As to `COc1ccc(CC2c3cc(OC)c(OC)cc3CC[N+]2(C)CCC(=O)OCCCCCOC(=O)CC[N+]2(C)CCc3cc(OC)c(OC)cc3C2Cc2ccc(OC)c(OC)c2)cc1OC` (stereo unspecified) [Atracurium besylate], the “fraction” value was 0.129 ± 0.097. The same measure, in the same setting: the value for `CCOC(=O)[C@H](CCc1ccccc1)N[C@H]1CS[C@H](c2cccs2)CN(CC(=O)O)C1=O` [Temocapril HCl] was 0.0921 ± 0.043; that for `CC(C)NC[C@H](O)COc1ccc(CCOCC2CC2)cc1` [Levobetaxolol HCl] was 0.129 ± 0.12. For the molecule `C[C@H](N)[C@H](O)c1cccc(O)c1` [Metaraminol Bitartrate], the “fraction” value amounted to 0.161 ± 0.18. Still for that read-out and setting: the value for `Cn1c(=O)c2[nH]cnc2n(C)c1=O` [Aminophylline (Truphylline)] was 0.105 ± 0.052; that for `N#CC[C@H](C1CCCC1)n1cc(-c2ncnc3[nH]ccc23)cn1` was 0.0958 ± 0.056; that for `NCCc1c[nH]cn1` [Histamine Phosphate] was 0.115 ± 0.091.

A further experiment deals with HeLa RPL29-GFP reporter. Nature of the experiment: fraction of reporter-positive cells with nuclear (nucleolar or nucleolar/nucleoplasmic) RPL29-GFP (MainHitrate); higher = more cells with nucleolar/nuclear readout signal (for ENP1 -LMB: less RNAPI inhibition; for +LMB ENP1 and RP reporters: stronger nuclear/nucleolar retention, i.e. ribosome biogenesis defect). To be noted: concentration: 1 µM; treatment time: 6 h.
`O=C(N/N=C/c1ccc([N+](=O)[O-])o1)c1ccc(O)cc1` [Nifuroxazide]: the “fraction” value worked out at 0.212 ± 0.088.

Take `N[C@H](C(=O)O)[C@H](O)c1ccc(O)c(O)c1` [Droxidopa (L-DOPS)]: the “fraction” value is 0.196 ± 0.048. Still for that read-out and setting: the result for `N=C(N)NC(=N)N1CCOCC1` [Moroxydine] reads 0.218 ± 0.063. Same read-out and setting: the value for `COc1ccc(C(=O)CC(=O)c2ccc(C(C)(C)C)cc2)cc1` [Avobenzone (Parsol 1789)] was 0.227 ± 0.092. With `CC[C@H]1OC(=O)[C@H](C)[C@@H](O[C@H]2C[C@@](C)(OC)[C@@H](O)[C@H](C)O2)[C@H](C)[C@@H](O[C@@H]2O[C@H](C)C[C@H](N(C)C)[C@H]2O)[C@](C)(O)C[C@@H](C)C(=O)[C@H](C)[C@@H](O)[C@]1(C)O` [Erythromycin (E-Mycin)], the “fraction” value worked out at 0.202 ± 0.083.

Take `C[C@H](CCC(=O)O)[C@H]1CC[C@H]2[C@@H]3CC[C@@H]4C[C@H](O)CC[C@]4(C)[C@H]3CC[C@]12C` [Lithocholic acid]: the “fraction” value was determined as 0.216 ± 0.094. Still for that read-out and setting: the value for `CC(=O)SCC(Cc1ccccc1)C(=O)NCC(=O)OCc1ccccc1` (stereo unspecified) [Racecadotril (Acetorphan)] was 0.224 ± 0.077. Same read-out and setting: the result for `Nc1nc(NC2CC2)c2ncn([C@H]3C=C[C@@H](CO)C3)c2n1` [Abacavir sulfate] reads 0.201 ± 0.079; that for `CC(C)Cc1ccc(C(C)C(=O)O)cc1` (stereo unspecified) [Ibuprofen Lysine (NeoProfen)], 0.23 ± 0.068. As to `Nc1ccn([C@@H]2O[C@H](CO)[C@@H](O)C2(F)F)c(=O)n1` [Gemcitabine HCl (Gemzar)], the “fraction” value is 0.182 ± 0.091.

On to `COc1ccc2c(c1)c(CC(=O)O)c(C)n2C(=O)c1ccc(Cl)cc1` [Indomethacin (Indocid, Indocin)], for which the “fraction” value worked out at 0.192 ± 0.063. Same read-out and setting: the value for `CN1CCC[C@@H]1CCO[C@](C)(c1ccccc1)c1ccc(Cl)cc1` [Clemastine Fumarate] was 0.225 ± 0.081. Still for that read-out and setting: the value for `O=c1oc2c(O)c(O)cc3c(=O)oc4c(O)c(O)cc1c4c23` [Ellagic acid] was 0.207 ± 0.071; that for `CCOC(=O)C1=C(C)NC(C)=C(C(=O)OC)C1c1cccc(Cl)c1Cl` (stereo unspecified) [Felodipine (Plendil)] was 0.248 ± 0.07; that for `Nc1nnc(-c2cccc(Cl)c2Cl)c(N)n1` [Lamotrigine] was 0.251 ± 0.076. The same measure, in the same setting: the value for `O=C1c2c(O)ccc(O)c2C(=O)c2c(NCCNCCO)ccc(NCCNCCO)c21` [Mitoxantrone Hydrochloride] was 0.54 ± 0.28.

As for `C[C@H]1C[C@H]2[C@@H]3CCC4=CC(=O)C=C[C@]4(C)[C@H]3C(=O)C[C@]2(C)[C@@]1(O)C(=O)CO` [Betapar (Meprednisone)], the “fraction” value turned out to be 0.257 ± 0.1.

Consider `CN1[C@@H]2CC[C@H]1C[C@@H](OC(=O)c1c[nH]c3ccccc13)C2` [Tropisetron], for which the “fraction” value was 0.373 ± 0.28.

Take `COc1ccccc1OCCNCC(O)COc1cccc2[nH]c3ccccc3c12` (stereo unspecified) [Carvedilol]: the “fraction” value was found to be 0.243 ± 0.077. For the molecule `C[C@@H](O[C@H]1OCCN(Cc2nn(P(=O)(O)O)c(=O)[nH]2)[C@H]1c1ccc(F)cc1)c1cc(C(F)(F)F)cc(C(F)(F)F)c1` [Fosaprepitant dimeglumine], the “fraction” value amounted to 0.198 ± 0.073. Same read-out and setting: the result for `CC(=O)Nc1ncc([N+](=O)[O-])s1` [Nithiamide] reads 0.21 ± 0.066; that for `C=C(NC(=O)C(=C)NC(=O)c1csc(C2=N[C@@H]3c4csc(n4)[C@H]4NC(=O)c5csc(n5)[C@H]([C@](C)(O)[C@@H](C)O)NC(=O)[C@H]5CSC(=N5)/C(=C/C)NC(=O)[C@H]([C@@H](C)O)NC(=O)c5csc(n5)[C@]3(CC2)NC(=O)[C@H](C)NC(=O)C(=C)NC(=O)[C@H](C)NC(=O)[C@H]([C@@H](C)CC)N[C@@H]2C=Cc3c([C@H](C)O)cc(nc3[C@H]2O)C(=O)O[C@@H]4C)n1)C(N)=O` [Thiostrepton], 0.325 ± 0.27.
